The target in assay [1] is T1, hsGet1 (human) (UniProt O00258).
T1 sequence: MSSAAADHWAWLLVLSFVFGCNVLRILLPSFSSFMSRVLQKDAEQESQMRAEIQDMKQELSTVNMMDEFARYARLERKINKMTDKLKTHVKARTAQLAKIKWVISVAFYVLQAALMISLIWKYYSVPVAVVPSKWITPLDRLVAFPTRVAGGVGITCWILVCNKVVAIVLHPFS
Nature of the assay: cryo-EM structure; hsGet2^ΔN-Get1/Get3 in PMAL-C8 amphipol; images acquired previously (ref. 24) re-processed in cryoSPARC, 3.2 Å, C2 symmetry; both purified.

Amino acid sequences for entries named in this document (tags omitted). A change or cut given only in a name is not applied to a line headed by its entry.
UniProt P49069: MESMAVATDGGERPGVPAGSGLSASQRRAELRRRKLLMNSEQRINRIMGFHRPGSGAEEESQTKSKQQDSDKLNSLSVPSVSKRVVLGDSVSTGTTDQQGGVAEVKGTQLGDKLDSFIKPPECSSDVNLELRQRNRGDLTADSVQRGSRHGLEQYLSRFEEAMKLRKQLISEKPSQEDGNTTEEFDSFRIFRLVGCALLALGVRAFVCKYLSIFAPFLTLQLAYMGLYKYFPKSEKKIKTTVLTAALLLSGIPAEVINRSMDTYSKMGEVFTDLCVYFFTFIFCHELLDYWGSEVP

The target in assay [2] is T1, hsGet1 (human). Nature of the assay: cryo-EM structure; hsGet2^ΔN/Δα3’-Get1 complexed with apo hsGet3, reconstituted in PMAL-C8 amphipol; single-particle reconstruction at 4.2 Å, no symmetry applied; both purified.

No constants are given. Whether binding was seen depends on the method and setting. A result given as binding can be weak or reduced; the word gives no strength.

With “hsGet2^ΔN (from UniProt P49069) (domain or fragment)”, the binding result in the assay with hsGet1 (human) [1] is “binds”.
Consider “hsGet2^ΔN/Δα3’ (from UniProt P49069) (domain or fragment)”, for which, in the assay with hsGet1 (human) [2], the binding entry is given as “binds”.
